From publication PMC12720780
Results are given in words; binding and its absence hold for the method and conditions named. Some entries that bind do so weakly or less than the wild type.

Molecular target: Ntr1 (neurotensin receptor, GPCR, Homo sapiens) (human) (UniProt P30989)
Experiment: SDS-PAGE with Western blot; Eluates from Ni-NTA Superflow (sulfo-SMA and DIBMA-glucosamine conditions); reducing SDS-PAGE, samples not boiled; immunoblot; band densitometry; both purified

In the case of “Ntr1 (neurotensin receptor, GPCR, Homo sapiens) (from UniProt P30989 1-418)”, the binding is reported as “binds”.
